Experimental data taken from paper PMC12718141.

Target: T1, FLAG-tagged FKBP4 (human) (UniProt Q02790)
T1 sequence: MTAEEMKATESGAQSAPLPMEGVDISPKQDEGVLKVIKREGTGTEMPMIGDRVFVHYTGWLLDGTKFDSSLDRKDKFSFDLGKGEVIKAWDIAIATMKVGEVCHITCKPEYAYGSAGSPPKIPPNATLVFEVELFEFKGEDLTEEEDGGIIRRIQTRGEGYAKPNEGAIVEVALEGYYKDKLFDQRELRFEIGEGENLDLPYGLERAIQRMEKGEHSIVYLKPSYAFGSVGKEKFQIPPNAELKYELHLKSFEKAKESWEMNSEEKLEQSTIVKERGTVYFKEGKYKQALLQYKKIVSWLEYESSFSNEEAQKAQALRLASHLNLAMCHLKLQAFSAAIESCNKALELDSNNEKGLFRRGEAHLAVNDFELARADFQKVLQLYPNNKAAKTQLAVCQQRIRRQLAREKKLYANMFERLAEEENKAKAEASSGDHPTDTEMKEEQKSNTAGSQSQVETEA
Assay: co-IP; HEK293T transfected 48 h; lysis in 20 mM Tris-HCl pH 7.5, 130 mM NaCl, 20 mM Na2MoO4, 1 mM EDTA, 10% glycerol, 0.5% Triton X-100; anti-c-Myc or anti-FLAG antibody 2 h at 4 °C, protein G magnetic beads; endogenous proteins detected by western blotting

For HSP70 (human (endogenous in HEK293T)), the binding was “no binding”.

These are yes or no findings as the source states them, for the method shown. Binding seen in cells or lysates may run through a third protein. Sequences can lack the tags named with a protein.
